Measurements from PMC4474554 (PLoS ONE, 2015).

Tested on: PC-9
Experiment: MTS assay, PC-9
Settings: Homo sapiens, PC-9, read-out: each IC50

IC50: 3.1 nM
Structure (SMILES): COc1cc2ncnc(Nc3ccc(F)c(Cl)c3)c2cc1OCCCN1CCOCC1 [Gefitinib, gefitinib, reference compound]
